The match of structure and compound is tentative.
Assays:
[1] = target: Orexin type 1 (OX1R) receptor (Homo sapiens, UniProt O43613); test: In vitro orexin antagonism assay: intracellular calcium measurement (FLIPR), orexin-A 3 nM as agonist; type: cell-based
[2] = target: human orexin-2 receptor (OX2R) (Homo sapiens, UniProt O43614); test: as above
[3] = target: human k-opioid receptor (kOR) (Homo sapiens, UniProt P41145); test: Human k-opioid (KOP) receptor (agonist radioligand [3H]U-69593) binding assay, transfected RBL cell membranes

The chains behind the UniProt entries cited, without tags or fusion partners.
UniProt O43613, whole entry: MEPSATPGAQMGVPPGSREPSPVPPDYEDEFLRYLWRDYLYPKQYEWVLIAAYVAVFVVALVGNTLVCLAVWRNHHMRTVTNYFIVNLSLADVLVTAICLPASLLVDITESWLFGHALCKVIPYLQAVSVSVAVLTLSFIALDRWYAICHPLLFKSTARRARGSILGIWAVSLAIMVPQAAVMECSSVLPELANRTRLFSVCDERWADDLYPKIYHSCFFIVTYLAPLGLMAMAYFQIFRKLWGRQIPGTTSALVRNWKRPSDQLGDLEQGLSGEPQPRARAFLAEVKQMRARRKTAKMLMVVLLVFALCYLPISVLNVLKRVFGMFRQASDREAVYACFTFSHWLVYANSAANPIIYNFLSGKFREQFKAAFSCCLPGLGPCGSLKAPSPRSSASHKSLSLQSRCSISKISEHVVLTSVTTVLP
UniProt O43614, whole entry: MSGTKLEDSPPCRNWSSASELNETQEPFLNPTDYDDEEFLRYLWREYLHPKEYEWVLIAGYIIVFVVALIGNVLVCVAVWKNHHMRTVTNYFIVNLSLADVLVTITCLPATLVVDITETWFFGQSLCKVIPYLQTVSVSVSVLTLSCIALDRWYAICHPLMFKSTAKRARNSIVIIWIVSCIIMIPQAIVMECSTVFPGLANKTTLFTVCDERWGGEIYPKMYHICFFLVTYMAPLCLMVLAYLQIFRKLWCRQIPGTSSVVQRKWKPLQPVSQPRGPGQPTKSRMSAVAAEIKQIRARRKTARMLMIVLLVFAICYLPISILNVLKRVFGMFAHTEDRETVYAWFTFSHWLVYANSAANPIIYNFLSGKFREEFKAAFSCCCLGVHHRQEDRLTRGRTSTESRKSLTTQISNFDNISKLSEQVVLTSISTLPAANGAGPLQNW
UniProt P41145, whole entry: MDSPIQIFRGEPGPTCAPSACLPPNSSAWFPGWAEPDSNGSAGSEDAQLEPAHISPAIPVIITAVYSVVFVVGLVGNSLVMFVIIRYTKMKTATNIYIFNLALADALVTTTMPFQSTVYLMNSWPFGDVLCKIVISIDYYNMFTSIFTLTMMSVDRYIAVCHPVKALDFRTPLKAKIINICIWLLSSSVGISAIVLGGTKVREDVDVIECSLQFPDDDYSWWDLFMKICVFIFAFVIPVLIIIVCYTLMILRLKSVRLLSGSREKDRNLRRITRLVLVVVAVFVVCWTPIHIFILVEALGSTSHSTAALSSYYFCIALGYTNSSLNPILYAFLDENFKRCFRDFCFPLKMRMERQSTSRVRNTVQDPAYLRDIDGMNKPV

O=C(c1c(-c2ccccc2)nn2c1COCC2)N1CCC[C@H]1Cn1ccc(-c2ccc(C(F)(F)F)cc2)n1
OX1R, % Inh. @ 1 uM [1]: 9.22%
OX2R, % Inh. @ 1 uM [2]: 6.67%
KOR % Inh. @ 1 uM ([3]; @ 1 uM): 85%
IC50 ([3]; read-out: KOR IC50, first value of IC50/Ki cell): 130 nM
Ki ([3]; read-out: KOR Ki, second value of IC50/Ki cell): 69 nM

O=C(c1nn2c(c1-c1ccccn1)COCC2)N1[C@H](Cn2ccc(-c3ccc(F)cn3)n2)C[C@@H]2C[C@@H]21
OX1R, % Inh. @ 1 uM [1]: 97%
IC50 ([1]; read-out: OX1R IC50, first value of IC50/Kb cell): 15 nM
Kb ([1]; read-out: OX1R Kb, second value of IC50/Kb cell): 3 nM
OX2R, % Inh. @ 1 uM [2]: 30%
